Experimental data taken from patent publication US20050101769A1.
These are yes or no findings as the source states them, for the method shown. For part of these data: Binding seen in cells or lysates may run through a third protein. Some binding calls cover weakened binding; strength is not graded here. For part of these data: Tags and fused reporters may be left off the sequences shown.

By UniProt entry, the sequences of proteins in these tests, tags left out. Residues count along the entry.
UniProt Q13546: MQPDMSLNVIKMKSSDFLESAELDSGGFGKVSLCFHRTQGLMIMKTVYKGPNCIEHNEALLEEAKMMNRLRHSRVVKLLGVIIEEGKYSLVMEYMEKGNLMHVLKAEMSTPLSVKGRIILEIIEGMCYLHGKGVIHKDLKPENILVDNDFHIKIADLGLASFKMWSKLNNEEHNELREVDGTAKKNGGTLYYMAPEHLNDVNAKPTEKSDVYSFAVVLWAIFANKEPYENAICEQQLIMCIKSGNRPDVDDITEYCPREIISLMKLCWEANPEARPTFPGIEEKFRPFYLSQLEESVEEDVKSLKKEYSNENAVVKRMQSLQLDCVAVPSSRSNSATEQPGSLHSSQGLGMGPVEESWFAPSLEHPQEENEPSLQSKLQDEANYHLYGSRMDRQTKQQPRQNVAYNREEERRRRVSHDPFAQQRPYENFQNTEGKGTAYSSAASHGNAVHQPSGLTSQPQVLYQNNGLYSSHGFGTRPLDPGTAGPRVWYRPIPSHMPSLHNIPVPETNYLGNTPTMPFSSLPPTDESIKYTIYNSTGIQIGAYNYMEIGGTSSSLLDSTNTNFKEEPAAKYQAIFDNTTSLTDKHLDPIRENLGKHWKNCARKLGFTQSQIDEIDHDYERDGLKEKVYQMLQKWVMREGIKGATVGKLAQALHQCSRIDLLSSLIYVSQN
UniProt P25942, residues 21-277: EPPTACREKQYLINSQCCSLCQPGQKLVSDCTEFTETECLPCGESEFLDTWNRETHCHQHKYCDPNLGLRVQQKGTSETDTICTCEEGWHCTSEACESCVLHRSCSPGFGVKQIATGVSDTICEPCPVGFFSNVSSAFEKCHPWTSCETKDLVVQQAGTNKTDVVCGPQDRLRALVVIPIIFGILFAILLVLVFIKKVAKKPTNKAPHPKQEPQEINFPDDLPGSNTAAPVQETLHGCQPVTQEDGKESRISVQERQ
UniProt P20333, residues 23-461: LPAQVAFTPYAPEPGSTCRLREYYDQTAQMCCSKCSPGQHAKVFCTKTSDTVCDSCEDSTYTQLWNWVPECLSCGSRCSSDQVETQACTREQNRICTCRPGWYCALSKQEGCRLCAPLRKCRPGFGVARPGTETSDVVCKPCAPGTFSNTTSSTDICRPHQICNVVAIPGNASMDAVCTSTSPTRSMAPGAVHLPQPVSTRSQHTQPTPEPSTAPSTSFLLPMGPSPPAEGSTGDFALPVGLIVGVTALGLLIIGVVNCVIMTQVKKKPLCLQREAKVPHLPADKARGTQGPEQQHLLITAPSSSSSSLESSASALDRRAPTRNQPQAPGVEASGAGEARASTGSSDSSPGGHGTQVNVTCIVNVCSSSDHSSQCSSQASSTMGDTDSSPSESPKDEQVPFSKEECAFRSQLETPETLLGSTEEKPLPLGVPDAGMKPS
UniProt O00463: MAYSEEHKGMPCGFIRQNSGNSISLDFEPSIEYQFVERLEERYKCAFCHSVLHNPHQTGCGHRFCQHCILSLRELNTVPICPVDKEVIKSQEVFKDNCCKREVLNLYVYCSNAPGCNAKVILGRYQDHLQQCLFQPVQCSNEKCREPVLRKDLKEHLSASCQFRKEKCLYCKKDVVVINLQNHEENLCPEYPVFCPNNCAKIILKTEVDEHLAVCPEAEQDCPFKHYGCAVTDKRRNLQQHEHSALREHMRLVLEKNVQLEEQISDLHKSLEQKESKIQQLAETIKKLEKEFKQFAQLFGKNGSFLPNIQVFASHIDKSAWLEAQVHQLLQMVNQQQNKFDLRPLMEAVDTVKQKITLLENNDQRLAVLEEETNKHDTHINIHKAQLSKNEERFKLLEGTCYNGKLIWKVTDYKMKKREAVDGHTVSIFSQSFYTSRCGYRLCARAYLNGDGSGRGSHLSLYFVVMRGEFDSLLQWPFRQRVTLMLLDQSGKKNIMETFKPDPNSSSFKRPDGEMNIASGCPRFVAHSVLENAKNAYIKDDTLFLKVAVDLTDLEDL

Legend:
TRAF2, Q12933 [1] = molecular target: T1, TRAF2, Q12933; assay: yeast two-hybrid; conditions: remark: other sources report otherwise
T1 chain: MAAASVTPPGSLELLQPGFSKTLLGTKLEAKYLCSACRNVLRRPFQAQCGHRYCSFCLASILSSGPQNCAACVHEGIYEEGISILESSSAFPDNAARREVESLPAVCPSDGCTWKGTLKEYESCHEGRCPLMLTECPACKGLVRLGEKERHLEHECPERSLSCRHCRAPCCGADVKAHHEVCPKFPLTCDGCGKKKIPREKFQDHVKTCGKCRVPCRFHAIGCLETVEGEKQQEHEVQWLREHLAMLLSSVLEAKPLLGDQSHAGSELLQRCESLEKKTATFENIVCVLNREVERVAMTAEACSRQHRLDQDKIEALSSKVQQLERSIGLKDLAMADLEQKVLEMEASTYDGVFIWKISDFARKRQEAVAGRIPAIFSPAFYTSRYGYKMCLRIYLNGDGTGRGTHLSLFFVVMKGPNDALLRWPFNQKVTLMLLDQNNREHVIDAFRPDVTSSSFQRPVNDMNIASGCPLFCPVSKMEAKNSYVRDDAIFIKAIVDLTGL

TRAF2, Q12933 [2] = molecular target: T1, TRAF2, Q12933; assay: yeast two-hybrid, colour formation on X-gal (column = prey, row = bait); conditions: remark: other sources report otherwise
TRAF2, Q12933 [3] = molecular target: T1, TRAF2, Q12933; assay: yeast two-hybrid, TTRAP as prey and TRAF2 as bait; conditions: remark: other sources report otherwise
TRAF2 [4] = molecular target: T2, TRAF2 (UniProt Q12933); assay: yeast two-hybrid, colour formation on X-gal (column = prey, row = bait)
T2 sequence (looked up): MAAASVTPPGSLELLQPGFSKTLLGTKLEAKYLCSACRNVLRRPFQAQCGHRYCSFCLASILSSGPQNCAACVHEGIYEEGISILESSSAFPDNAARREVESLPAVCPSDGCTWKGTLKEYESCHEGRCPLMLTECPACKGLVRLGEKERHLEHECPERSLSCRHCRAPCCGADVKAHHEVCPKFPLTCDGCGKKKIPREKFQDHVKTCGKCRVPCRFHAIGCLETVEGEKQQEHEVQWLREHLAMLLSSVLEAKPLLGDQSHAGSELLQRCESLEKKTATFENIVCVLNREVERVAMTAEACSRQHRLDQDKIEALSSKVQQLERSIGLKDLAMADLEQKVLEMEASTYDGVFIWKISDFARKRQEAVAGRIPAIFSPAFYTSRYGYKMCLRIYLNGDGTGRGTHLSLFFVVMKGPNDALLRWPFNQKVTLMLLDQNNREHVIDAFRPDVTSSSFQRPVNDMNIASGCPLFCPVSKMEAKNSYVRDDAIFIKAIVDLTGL

RIP [5] = molecular target: RIP (UniProt Q13546); assay: as above
RIP [6] = molecular target: RIP (UniProt Q13546); assay: yeast two-hybrid
TRAF2 [7] = molecular target: T2, TRAF2; assay: yeast two-hybrid, 4F2 as prey and TRAF2 as bait
TRADD = molecular target: T3, TRADD (UniProt Q15628); assay: yeast two-hybrid, colour formation on X-gal (column = prey, row = bait)
T3 sequence (looked up): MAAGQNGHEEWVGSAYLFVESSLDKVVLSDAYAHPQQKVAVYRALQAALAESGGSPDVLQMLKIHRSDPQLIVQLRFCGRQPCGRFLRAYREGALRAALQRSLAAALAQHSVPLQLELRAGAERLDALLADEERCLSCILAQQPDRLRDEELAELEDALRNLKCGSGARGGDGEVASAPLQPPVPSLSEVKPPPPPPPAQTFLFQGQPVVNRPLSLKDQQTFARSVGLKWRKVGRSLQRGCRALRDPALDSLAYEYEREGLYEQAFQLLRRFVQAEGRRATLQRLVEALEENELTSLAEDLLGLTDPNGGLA

[8] = molecular target: CD40 over-expressed in 293T human embryonic kidney cells (UniProt P25942); assay: co-immunoprecipitation after over-expression in 293T cells
[9] = molecular target: TNF-RII expressed in 293T cells (UniProt P20333); assay: co-immunoprecipitation from 293T cells with 50 mM NaF, 1 mM Na3P2O7, 1 mM Na3VO4
[10] = molecular target: Flag-tagged human TRAF5 (human) (UniProt O00463); assay: co-immunoprecipitation from mammalian cells
[11] = molecular target: TNF-RII expressed in 293T cells (UniProt P20333); assay: co-immunoprecipitation from transfected 293T cells, IP of TNF-RII with utr4, Western blot
[12] = molecular target: Flag-tagged human TRAF5 (human) (UniProt O00463); assay: co-immunoprecipitation, IP of Flag-tagged TRAF5, Western blot for HA-tagged TTRAP

Measured: binding

B1: TTRAP (TRAF and TNF receptor associated protein), full-length human, O95551 1-362 (protein)
chain: MELGSCLEGGREAAEEEGEPEVKKRRLLCVEFASVASCDAAVAQCFLAENDWEMERALNSYFEPPVEESALERRPETISEPKTYVDLTNEETTDSTTSKISPSEDTQQENGSMFSLITWNIDGLDLNNLSERARGVCSYLALYSPDVIFLQEVIPPYYSYLKKRSSNYEIITGHEEGYFTAIMLKKSRVKLKSQEIIPFPSTKMMRNLLCVHVNVSGNELCLMTSHLESTRGHAAERMNQLKMVLKKMQEAPESATVIFAGDTNLRDREVTRCGGLPNNIVDVWEFLGKPKHCQYTWDTQMNSNLGITAACKLRFDRIFFRAAAEEGHIIPRSLDLLGLEKLDCGRFPSDHWGLLCNLDIIL
binds: TRAF2, Q12933 [1] | TRAF2, Q12933 [2] | TRAF2, Q12933 [3]

B2: 4F2, TTRAP deletion mutant, amino acids 54 to 362 (protein)
chain: MERALNSYFEPPVEESALERRPETISEPKTYVDLTNEETTDSTTSKISPSEDTQQENGSMFSLITWNIDGLDLNNLSERARGVCSYLALYSPDVIFLQEVIPPYYSYLKKRSSNYEIITGHEEGYFTAIMLKKSRVKLKSQEIIPFPSTKMMRNLLCVHVNVSGNELCLMTSHLESTRGHAAERMNQLKMVLKKMQEAPESATVIFAGDTNLRDREVTRCGGLPNNIVDVWEFLGKPKHCQYTWDTQMNSNLGITAACKLRFDRIFFRAAAEEGHIIPRSLDLLGLEKLDCGRFPSDHWGLLCNLDIIL
binds: TRAF2 [4] | RIP [5] | RIP [6] | TRAF2 [7]

B3: TTRAP (TRAF and TNF receptor associated protein), full-length human (protein)
chain: MELGSCLEGGREAAEEEGEPEVKKRRLLCVEFASVASCDAAVAQCFLAENDWEMERALNSYFEPPVEESALERRPETISEPKTYVDLTNEETTDSTTSKISPSEDTQQENGSMFSLITWNIDGLDLNNLSERARGVCSYLALYSPDVIFLQEVIPPYYSYLKKRSSNYEIITGHEEGYFTAIMLKKSRVKLKSQEIIPFPSTKMMRNLLCVHVNVSGNELCLMTSHLESTRGHAAERMNQLKMVLKKMQEAPESATVIFAGDTNLRDREVTRCGGLPNNIVDVWEFLGKPKHCQYTWDTQMNSNLGITAACKLRFDRIFFRAAAEEGHIIPRSLDLLGLEKLDCGRFPSDHWGLLCNLDIIL
binds: TRADD | RIP [5] | RIP [6] | [8]

B4: HA-tagged TTRAP (protein, not shown: small tags and cut ends)
chain: MELGSCLEGGREAAEEEGEPEVKKRRLLCVEFASVASCDAAVAQCFLAENDWEMERALNSYFEPPVEESALERRPETISEPKTYVDLTNEETTDSTTSKISPSEDTQQENGSMFSLITWNIDGLDLNNLSERARGVCSYLALYSPDVIFLQEVIPPYYSYLKKRSSNYEIITGHEEGYFTAIMLKKSRVKLKSQEIIPFPSTKMMRNLLCVHVNVSGNELCLMTSHLESTRGHAAERMNQLKMVLKKMQEAPESATVIFAGDTNLRDREVTRCGGLPNNIVDVWEFLGKPKHCQYTWDTQMNSNLGITAACKLRFDRIFFRAAAEEGHIIPRSLDLLGLEKLDCGRFPSDHWGLLCNLDIIL
binds: [9] | [10] | [11] | [12]
